Test results: article PMC4172968
No constants are given. Whether binding was seen depends on the method and setting. Binding seen in cells or lysates may run through a third protein. Some entries that bind do so weakly or less than the wild type. Each block holds one molecule with its values, some of them ahead of it.

Amino acid sequences for entries named in this document (tags omitted). Residues count along the entry.
UniProt P30561, residues 10-848: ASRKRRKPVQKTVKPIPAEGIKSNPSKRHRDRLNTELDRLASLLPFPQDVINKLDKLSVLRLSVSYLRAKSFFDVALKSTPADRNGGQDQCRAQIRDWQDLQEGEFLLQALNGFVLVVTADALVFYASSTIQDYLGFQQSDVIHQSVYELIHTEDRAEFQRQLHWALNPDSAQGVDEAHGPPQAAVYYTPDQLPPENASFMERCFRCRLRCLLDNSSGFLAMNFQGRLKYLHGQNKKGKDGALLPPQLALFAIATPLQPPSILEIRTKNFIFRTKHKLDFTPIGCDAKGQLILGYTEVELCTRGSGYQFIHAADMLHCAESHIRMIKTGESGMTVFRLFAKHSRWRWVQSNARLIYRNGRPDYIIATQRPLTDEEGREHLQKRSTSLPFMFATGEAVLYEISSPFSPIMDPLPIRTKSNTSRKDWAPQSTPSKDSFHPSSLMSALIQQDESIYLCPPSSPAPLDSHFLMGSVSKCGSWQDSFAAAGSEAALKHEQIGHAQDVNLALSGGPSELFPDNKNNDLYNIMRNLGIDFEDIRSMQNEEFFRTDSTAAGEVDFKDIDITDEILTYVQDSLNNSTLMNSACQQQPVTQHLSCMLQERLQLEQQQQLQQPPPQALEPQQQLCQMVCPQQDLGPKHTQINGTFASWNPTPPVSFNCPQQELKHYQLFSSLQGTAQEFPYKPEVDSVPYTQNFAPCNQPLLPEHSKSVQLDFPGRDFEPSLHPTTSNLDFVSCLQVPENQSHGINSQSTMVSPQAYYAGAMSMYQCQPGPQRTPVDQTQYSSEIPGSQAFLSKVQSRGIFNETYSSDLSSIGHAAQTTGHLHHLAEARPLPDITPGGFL

Experiments:
[1] = target: T1, Caveolin-1 (mouse (endogenous in T-FGM fibroblasts)) (UniProt P49817); experiment: co-IP; T-FGM AhR+/+ cells lysed in 50 mM Tris HCl pH 7.4, 125 mM NaCl, 2 mM DTT, 1% Nonidet P-40; 1 mg total protein immunoprecipitated with anti-Cav-1 or anti-AhR antibody and protein-A/G plus Sepharose overnight at 4°C; immunoblotting for AhR and Cav-1
T1 sequence: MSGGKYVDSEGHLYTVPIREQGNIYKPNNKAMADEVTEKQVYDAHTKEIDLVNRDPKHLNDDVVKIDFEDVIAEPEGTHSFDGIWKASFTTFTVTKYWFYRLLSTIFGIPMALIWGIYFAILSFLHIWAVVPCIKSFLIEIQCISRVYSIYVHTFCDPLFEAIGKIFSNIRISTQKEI

[2] = target: aryl hydrocarbon Receptor (AhR)/Dioxin receptor (mouse (endogenous in T-FGM fibroblasts)) (UniProt P30561); experiment: as above

binding [1]: binds
Molecule: aryl hydrocarbon Receptor (AhR)/Dioxin receptor (from UniProt P30561 10-848)

binding [2]: binds
B1: Caveolin-1 (protein, UniProt P49817 1-178)
chain: T1 sequence
